Laboratory results: publication PMC6015222, “Targeting Phosphopeptide Recognition by the Human BRCA1 Tandem BRCT Domain to Interrupt BRCA1-Dependent Signaling” (Cell Chemical Biology, 2018)
No constants are given. Whether binding was seen depends on the method and setting. Some binding calls cover weakened binding; strength is not graded here.

By UniProt entry, the sequences of proteins in these tests, tags left out. Residues count along the entry.
UniProt P38398, residues 1646-1859: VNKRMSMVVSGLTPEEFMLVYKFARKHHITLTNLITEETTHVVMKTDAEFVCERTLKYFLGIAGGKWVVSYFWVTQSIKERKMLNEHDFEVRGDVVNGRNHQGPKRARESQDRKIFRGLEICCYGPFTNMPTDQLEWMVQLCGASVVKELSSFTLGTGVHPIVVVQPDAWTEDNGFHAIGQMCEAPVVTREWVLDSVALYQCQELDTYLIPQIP

Target: human BRCA1 tandem BRCT domain (residues 1646-1859) (human) (UniProt P38398)
Assay: MST; competitive: 20 nM NT-647-labelled protein with 2 uM cognate peptide substrate and compound in 16 dilutions; 20 mM Tris pH 7.4, 200 mM NaCl, 0.05% Tween-20, 2 mM DTT; 22°C; both purified

binding: binds
B1: BACH1 phosphopeptide (GGSRSTpSPTFNK-NH2) (peptide)
peptide: GGSRSTSPTFNK
modifications: phosphoserine at residue 7 of the peptide (Ser990 of BACH1); C-terminal amide
